No constants are given. Whether binding was seen depends on the method and setting. For some assays here: In cells and extracts the contact can be indirect. Some binding calls cover weakened binding; strength is not graded here.
Experiments:
[1] = target: T1, L3MBTL3, endogenous (human (endogenous in HCT116)) (UniProt Q96JM7); assay: co-IP; endogenous proteins immunoprecipitated from HCT116 lysates (0.5% NP40, 50 mM Tris pH 7.5, 150 mM NaCl; usually 500 μg lysate; Protein A-Sepharose), western blot; in some panels cells with SET7 expression, SET7 or PHF20L1 siRNA, MG132 5 μg/ml for the last 6 h
T1 sequence: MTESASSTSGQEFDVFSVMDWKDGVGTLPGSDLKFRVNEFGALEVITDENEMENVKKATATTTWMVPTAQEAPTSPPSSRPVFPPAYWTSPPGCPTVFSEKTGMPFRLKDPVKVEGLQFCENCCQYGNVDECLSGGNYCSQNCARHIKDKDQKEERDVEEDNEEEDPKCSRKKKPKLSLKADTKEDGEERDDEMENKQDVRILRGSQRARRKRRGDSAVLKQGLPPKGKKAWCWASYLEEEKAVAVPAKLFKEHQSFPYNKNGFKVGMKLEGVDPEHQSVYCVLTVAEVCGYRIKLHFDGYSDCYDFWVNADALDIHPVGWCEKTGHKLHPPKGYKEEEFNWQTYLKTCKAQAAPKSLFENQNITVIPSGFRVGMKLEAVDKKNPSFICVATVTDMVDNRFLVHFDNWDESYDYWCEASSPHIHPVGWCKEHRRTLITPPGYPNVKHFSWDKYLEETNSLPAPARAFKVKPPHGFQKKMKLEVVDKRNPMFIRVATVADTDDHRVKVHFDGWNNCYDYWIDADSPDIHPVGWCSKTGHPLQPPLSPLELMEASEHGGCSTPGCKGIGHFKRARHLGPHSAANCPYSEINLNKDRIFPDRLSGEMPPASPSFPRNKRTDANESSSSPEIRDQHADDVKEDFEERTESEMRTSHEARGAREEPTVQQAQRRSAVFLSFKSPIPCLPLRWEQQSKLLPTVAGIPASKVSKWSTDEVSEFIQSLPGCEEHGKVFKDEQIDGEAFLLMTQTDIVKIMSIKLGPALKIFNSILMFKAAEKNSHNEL

Sequences of proteins named here, by UniProt entry; tags and fusion partners are left off.
UniProt Q16531: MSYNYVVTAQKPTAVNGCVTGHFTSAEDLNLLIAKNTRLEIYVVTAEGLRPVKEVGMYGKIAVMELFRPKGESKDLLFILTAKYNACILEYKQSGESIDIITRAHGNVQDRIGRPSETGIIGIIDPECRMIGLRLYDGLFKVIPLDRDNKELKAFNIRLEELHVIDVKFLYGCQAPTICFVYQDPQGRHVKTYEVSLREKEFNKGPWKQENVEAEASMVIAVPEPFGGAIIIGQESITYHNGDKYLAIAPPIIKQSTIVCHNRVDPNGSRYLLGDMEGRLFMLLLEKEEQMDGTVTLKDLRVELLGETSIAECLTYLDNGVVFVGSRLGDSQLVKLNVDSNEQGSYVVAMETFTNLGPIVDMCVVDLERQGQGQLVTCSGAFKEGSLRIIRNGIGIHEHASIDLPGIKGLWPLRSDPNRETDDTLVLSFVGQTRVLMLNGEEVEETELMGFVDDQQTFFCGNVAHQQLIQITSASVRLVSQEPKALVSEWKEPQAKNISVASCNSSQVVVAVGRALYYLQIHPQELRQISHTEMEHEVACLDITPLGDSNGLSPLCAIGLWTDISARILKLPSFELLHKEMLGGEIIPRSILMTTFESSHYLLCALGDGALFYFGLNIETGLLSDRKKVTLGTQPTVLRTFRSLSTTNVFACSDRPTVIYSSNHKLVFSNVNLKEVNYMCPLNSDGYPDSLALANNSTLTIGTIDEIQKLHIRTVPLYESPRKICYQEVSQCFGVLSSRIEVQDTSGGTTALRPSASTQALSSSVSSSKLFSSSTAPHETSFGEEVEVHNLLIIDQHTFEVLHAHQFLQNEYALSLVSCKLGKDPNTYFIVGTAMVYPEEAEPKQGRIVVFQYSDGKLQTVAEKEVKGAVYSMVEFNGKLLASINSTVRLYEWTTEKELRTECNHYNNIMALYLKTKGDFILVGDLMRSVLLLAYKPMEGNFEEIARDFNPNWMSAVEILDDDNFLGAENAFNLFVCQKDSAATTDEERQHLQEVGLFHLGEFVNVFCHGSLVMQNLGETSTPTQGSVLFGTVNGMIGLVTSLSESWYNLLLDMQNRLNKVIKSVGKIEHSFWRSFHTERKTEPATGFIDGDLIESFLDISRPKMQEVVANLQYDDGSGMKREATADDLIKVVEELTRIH
UniProt Q969R5: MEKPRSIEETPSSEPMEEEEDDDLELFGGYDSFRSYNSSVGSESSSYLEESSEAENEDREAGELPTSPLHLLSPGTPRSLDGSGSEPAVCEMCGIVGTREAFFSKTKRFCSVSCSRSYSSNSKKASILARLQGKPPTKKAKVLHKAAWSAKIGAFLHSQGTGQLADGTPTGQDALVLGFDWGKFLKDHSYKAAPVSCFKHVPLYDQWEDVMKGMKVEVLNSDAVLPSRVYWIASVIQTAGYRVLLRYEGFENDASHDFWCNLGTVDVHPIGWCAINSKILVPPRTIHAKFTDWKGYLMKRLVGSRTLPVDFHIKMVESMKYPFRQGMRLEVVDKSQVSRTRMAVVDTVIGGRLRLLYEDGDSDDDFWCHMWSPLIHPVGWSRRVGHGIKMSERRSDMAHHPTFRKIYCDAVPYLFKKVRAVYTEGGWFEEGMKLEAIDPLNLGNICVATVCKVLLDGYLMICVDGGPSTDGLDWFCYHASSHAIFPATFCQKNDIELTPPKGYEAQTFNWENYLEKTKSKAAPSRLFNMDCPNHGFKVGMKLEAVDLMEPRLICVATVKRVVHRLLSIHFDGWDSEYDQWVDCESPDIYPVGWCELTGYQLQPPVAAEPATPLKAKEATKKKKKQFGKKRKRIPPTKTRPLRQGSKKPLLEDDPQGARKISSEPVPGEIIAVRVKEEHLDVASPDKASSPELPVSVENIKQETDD

[2] = target: T2, cognate unmethylated K142 peptide of DNMT1 (human); assay: pull-down; DNMT1 K142me1 or K142me0 peptide on Sulfolink resin, pre-blocked with 5 μg GST for 2 h, then 1.5 μg GST fusion protein in 0.1% NP40, 50 mM Tris-Cl pH 7.5, 150 mM NaCl at 4 °C; western blot; both purified
T2 sequence (peptide, coupled to Sulfolink resin through the C-terminal cysteine): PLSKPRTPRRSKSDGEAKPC

Row | binding [1] | binding [2] | Substance
1 | binds |  | DDB1, endogenous (from UniProt Q16531 1-1140)
2 |  | no binding (tested: 1.5 μg) | GST-L3MBTL2 (from UniProt Q969R5 1-705)
